Results on eleven compounds are retold here after article PMC12608155, “Discovery of Potential Antileishmanial Compounds Through Phenotypic Screening of an Alkaloid Library” (Molecules, 2025).

The subject of series [1] is HepG2. In words: Cytotoxicity in HepG2 cells (alamarBlue, 72 h). As to conditions: calculated between HepG2 cells and intramacrophagic amastigotes. On the procedure: (§1) To this end, we calculated SIs from 16 preselected results from the ex vivo system. With this aim, dose–response curves were performed in duplicate across at least three independent experiments using RAW 264.7 mouse macrophages (as a model of host cells harboring amastigotes) and HepG2 (as a model for assessing systemic toxicity).
(§2) To evaluate the safety of the selected compounds, two cell lines were employed: RAW 264.7 (a mouse macrophage-derived cell line) and HepG2 (a human hepatoma cell line). Furthermore, to determine the intestinal tolerance relevant to potential oral administration, mouse intestinal organoids were prepared.
(§3) RAW 264.7 and HepG2 were routinely cultured under standard conditions. RAW 264.7 cells were maintained in RPMI medium (Gibco) supplemented with, 25 mM HEPES, 24 mM NaHCO3, 2 mM L-glutamine, mixture of antibiotics and 10% FBS. HepG2 cells were cultured in DMEM/F-12 (Gibco) and supplemented 10% of FBS. For cytotoxicity assays, 10,000 cells per well were seeded into 96-well plates and incubated overnight at 37 °C with 5% of CO2. Subsequently, 2-fold serial dilutions of the compounds were added and incubated for 72 h. Cell viability using the alamarBlue™ assay according to the manufacturer’s instructions, and fluorescence was measured with a Varioskan™ LUX microplate reader (ThermoFisher Scientific, Waltham, MA, USA). Non-linear regression analyses were performed using SigmaPlot^TM software (version 10.0) to calculate CC50. Data were obtained from at least three independent experiments performed in duplicate.

For series [2], the system named is RAW 264.7. In words: Cytotoxicity in RAW 264.7 cells (alamarBlue, 72 h). As to conditions: calculated between RAW 264.7 cells and intramacrophagic amastigotes. On the procedure:
as §1, §2, §3

Regarding `COc1ccc2c(C)c3[n+](cc2c1OC)CCc1cc2c(cc1-3)OCO2` [13-Methylberberine], the SI2 in series [1] is 37.7. Also, in series [2], the SI1 was >13.3.

In the case of `COc1ccc2c(c1OC)C(OC)N(C)c1c-2ccc2cc3c(cc12)OCO3` (stereo not shown) [Angoline], the SI2 in series [1] is listed as 4.5. The SI1 in series [2] is listed as 4.6.

`COc1ccc2c(c[n+](C)c3c4cc5c(cc4ccc23)OCO5)c1OC` [Chelerythrine]: the SI2 in series [1] is listed as 3.4. The SI1 in series [2] is recorded as 3.4.

Turning to `c1c2c(cc3c1OCO3)-c1cc3ccc4c(c3c[n+]1CC2)OCO4` [Coptisine], the SI2 in series [1] is reported as >2.9. Moreover, in series [2], the SI1 is on record as >2.9.

For the compound `COc1cc2c3c(cc4ccccc4c3c1OC)N(C)CC2` [Dehydronuciferine], in series [2], the SI1 is given as >0.37.

In the case of `CN1Cc2c(ccc3c2OCO3)-c2ccc3cc4c(cc3c21)OCO4` [Dihydrosanguinarine], the SI2 in series [1] is >4.7. Moreover, in series [2], the SI1 is on record as 5.4.

For the compound `CCOC1c2c(ccc3c2OCO3)-c2ccc3cc4c(cc3c2N1C)OCO4` (stereo not shown) [Ethoxysanguinarine], in series [1], the SI2 is on record as 1.7. Further, the SI1 in series [2] is listed as 1.9.

With `CC[C@@H]1[C@H]2CCCCN3[C@H]2[C@@H](C[C@H]3[C@@H]2C[C@H](C)C(=O)O2)[C@H]2[C@@H]1OC(=O)[C@H]2C` [Neotuberostemonine], the SI1 in series [2] was >1.6.

Consider `c1c2c(cc3c1OCO3)-c1cc3cc4c(cc3c[n+]1CC2)OCO4` [Pseudocoptisine], for which the SI2 in series [1] was >7.0. Also, the SI1 in series [2] is recorded as >7.0.

Take `C[n+]1cc2c3c(ccc2c2ccc4cc5c(cc4c21)OCO5)OCO3` [Sanguinarine]: the SI2 in series [1] is listed as 2.4. Moreover, in series [2], the SI1 is 2.2.

Regarding `CC[C@@H]1[C@H]2CCCCN3[C@H]2[C@H](C[C@H]3[C@@H]2C[C@H](C)C(=O)O2)[C@@H]2[C@H]1OC(=O)[C@H]2C` [Tuberostemonine], the SI1 in series [2] is on record as >1.0.
